Data reported in article PMC6925144, “A prospective compound screening contest identified broader inhibitors for Sirtuin 1” (Scientific Reports, 2019).
Over roughly 3,200 compounds, “TSA(without NAD+) / Primary screening (TSA) / delta Tm (K)” has its median near -0.07; the highest 2% begin near 0.37. The list shows a part of the results.

Chains of the proteins cited; added tags and fusions are not shown. Residues count along the entry.
UniProt Q96EB6, 2-747 limits assumed: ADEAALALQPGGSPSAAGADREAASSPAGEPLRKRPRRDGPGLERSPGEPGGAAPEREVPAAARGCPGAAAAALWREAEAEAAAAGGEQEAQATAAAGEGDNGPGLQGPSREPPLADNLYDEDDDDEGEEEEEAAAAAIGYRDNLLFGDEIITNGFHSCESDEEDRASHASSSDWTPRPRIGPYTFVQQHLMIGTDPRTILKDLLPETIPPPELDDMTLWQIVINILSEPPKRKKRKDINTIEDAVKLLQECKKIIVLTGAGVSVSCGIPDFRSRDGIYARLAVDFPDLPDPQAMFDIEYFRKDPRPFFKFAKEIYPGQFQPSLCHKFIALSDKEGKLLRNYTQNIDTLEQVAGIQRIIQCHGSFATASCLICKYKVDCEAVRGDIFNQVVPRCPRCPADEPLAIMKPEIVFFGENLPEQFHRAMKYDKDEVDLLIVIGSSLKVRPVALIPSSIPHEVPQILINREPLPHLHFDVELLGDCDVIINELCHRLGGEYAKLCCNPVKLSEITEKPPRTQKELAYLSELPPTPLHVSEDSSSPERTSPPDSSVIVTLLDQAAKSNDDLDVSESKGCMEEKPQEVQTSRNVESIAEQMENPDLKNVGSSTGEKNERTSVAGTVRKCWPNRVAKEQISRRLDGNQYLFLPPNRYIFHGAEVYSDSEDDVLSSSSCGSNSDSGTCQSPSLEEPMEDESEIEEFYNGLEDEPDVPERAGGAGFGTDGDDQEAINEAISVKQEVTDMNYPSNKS

Target: NAD-dependent deacetylase Sirtuin 1 (human, UniProt Q96EB6)
Experiment: primary screen, delta tm
Design: single well (n = 1)
Conditions: 10 µM
In short: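 Thermal shift of Sirtuin 1 measured without NAD+, compound at 10 µM (n = 1); value is ΔTm, with hits defined as ΔTm > 0.45 K or < −1.5 K. Hits retested at 5, 10, 20 µM (n = 4) and counterscreened on bovine carbonic anhydrase and ABL1 SH2 domain.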

First: O=C(CSc1ccccc1)Nc1cc2c(=O)[nH]cnc2cc1F
Second: O=C(CCn1[nH]c(=O)ccc1=O)Nc1nc2ccccc2s1
The “TSA(without NAD+) / Primary screening (TSA) / delta Tm (K)” value of the first is lower: -0.28 K for the first, -0.13 K for the second.

Going from `O=c1oc(-c2ccc(F)cc2)nn1Cc1nc2ccccc2s1` to `O=C1c2ccccc2NC(c2ccc(Cl)cc2)N1C1CC1` (centres unmarked), the “TSA(without NAD+) / Primary screening (TSA) / delta Tm (K)” value falls from -0.18 K to -0.22 K.

First: CC1CCCN(C(=O)c2ccc(/C=C/c3ccc4ccccc4n3)cc2)C1 (centres unmarked)
Second: Cc1cccc(N2CCN(C(=O)c3ccc(C(C)(C)C)cc3)CC2)c1C
The “TSA(without NAD+) / Primary screening (TSA) / delta Tm (K)” value of the first is lower: -0.21 K for the first, -0.02 K for the second.

Going from `Cc1nc(N2CCN(Cc3ccncc3)CC2)c2c(-c3cccs3)csc2n1` to `COc1ccc(CN2CCN(c3ncnc4sc5c(c34)CCCCC5)CC2)cc1`, the “TSA(without NAD+) / Primary screening (TSA) / delta Tm (K)” value falls from -0.08 K to -0.28 K.

Going from `COc1ccccc1NS(=O)(=O)c1ccc(NC(=O)CNC(=O)C23CC4CC(CC(C4)C2)C3)cc1` to `O=C1NC(=O)c2ccccc2/C1=C\NNC(=O)C12CC3CC(CC(C3)C1)C2`, the “TSA(without NAD+) / Primary screening (TSA) / delta Tm (K)” value rises from 0.03 K to 0.33 K.

First: CCn1cnnc1-c1cccc(NC(=O)c2cc(C(N)=O)cn2C)c1
Second: COc1cccc(N2CCN(CCC(=O)Nc3ccc(C(N)=O)cc3)CC2)c1
The “TSA(without NAD+) / Primary screening (TSA) / delta Tm (K)” value of the first is lower: -0.05 K for the first, 0.08 K for the second.

First: NC(=O)C1CCCCN1C(=O)CSc1nc2cc(Cl)ccc2[nH]1 (centres unmarked)
Second: COC(=O)c1ccc2[nH]c3c(c2c1)CN(c1cn[nH]c(=O)c1Cl)CC3
The “TSA(without NAD+) / Primary screening (TSA) / delta Tm (K)” value of the first is lower: -0.22 K for the first, 0.07 K for the second.

First: O=C(Nc1cccc(S(=O)(=O)NCc2ccco2)c1)c1ccccc1SCC(=O)N1CCCC1
Second: CN(c1ccccc1)S(=O)(=O)c1cccc(C(=O)Nc2ccccc2C(F)(F)F)c1
The “TSA(without NAD+) / Primary screening (TSA) / delta Tm (K)” value of the first is lower: -0.18 K for the first, -0.14 K for the second.

Going from `CN(Cc1nc(-c2cccnc2)no1)Cc1c[nH]nc1-c1cccnc1` to `O=C(CSc1nccn1Cc1ccccn1)c1cccc(OC(F)F)c1`, the “TSA(without NAD+) / Primary screening (TSA) / delta Tm (K)” value falls from -0.08 K to -0.14 K.

Compared with `COCCCNC(=O)/C(=C/c1ccc(OCc2ccccc2)cc1)c1nc2ccccc2[nH]1`, `O=C(Nc1ccccc1Cc1ccccc1)c1ccc2ccccc2c1` is lower in “TSA(without NAD+) / Primary screening (TSA) / delta Tm (K)” value: 0.17 K for the first, -0.08 K for the second.

Going from `CCC(N)CO` (centres unmarked) to `C=C(C)CCN`, the “TSA(without NAD+) / Primary screening (TSA) / delta Tm (K)” value falls from 0.12 K to -0.15 K.

First: CCOc1ccc(-n2c(C)cc(C(=O)COc3ccccc3C(N)=O)c2C)cc1
Second: Cc1ccc(-n2ccnc2SCC(=O)N(CCC(N)=O)Cc2ccccc2)c(C)c1
The “TSA(without NAD+) / Primary screening (TSA) / delta Tm (K)” value of the first is lower: -0.02 K for the first, 0.07 K for the second.

Compared with `O=C(CSc1nnc(NCC2CCCO2)s1)Nc1nc(-c2cc(F)ccc2F)cs1` (centres unmarked), `Cc1nc(C)c(-c2nnc(SCC(=O)N3CCN(Cc4cccs4)CC3)o2)s1` is higher in “TSA(without NAD+) / Primary screening (TSA) / delta Tm (K)” value: -0.03 K for the first, 0.02 K for the second.

Going from `COCC(C)N` (centres unmarked) to `NCCOCC(=O)O`, the “TSA(without NAD+) / Primary screening (TSA) / delta Tm (K)” value falls from -0.11 K to -0.23 K.

Going from `N#Cc1c(=O)c2cccnc2n2c1[nH]c1ccccc12` to `N#C/C(=C/c1ccc(-c2cccc(Cl)c2Cl)o1)C(=O)Nc1cccc2ncccc12`, the “TSA(without NAD+) / Primary screening (TSA) / delta Tm (K)” value falls from 0.07 K to -0.23 K.

Going from `CC(C)(C)OC(=O)N1CCCC1C(=O)N1CCN(c2cnccn2)CC1` (centres unmarked) to `Cc1ccccc1CN1CCN(C(C)C(=O)Nc2sccc2C(N)=O)CC1` (centres unmarked), the “TSA(without NAD+) / Primary screening (TSA) / delta Tm (K)” value rises from -0.13 K to -0.03 K.

Compared with `Cc1ccc(C(=O)C2=C(O)C(=O)N(CCCN3CCOCC3)C2c2ccc(OC(C)C)cc2)cc1` (centres unmarked), `CCC(=O)N1N=C(c2cccs2)CC1c1ccc(OC)cc1` (centres unmarked) is lower in “TSA(without NAD+) / Primary screening (TSA) / delta Tm (K)” value: 0.12 K for the first, -0.27 K for the second.

Compared with `COc1ccc(S(=O)(=O)Nc2ccccc2OC)cc1NN=C1C(=O)NC(=S)NC1=O`, `CN1/C(=C/C=C2C(=O)NC(=S)NC2=O)C(C)(C)c2ccccc21` is higher in “TSA(without NAD+) / Primary screening (TSA) / delta Tm (K)” value: -0.18 K for the first, -0.15 K for the second.

Compared with `O=C(NC1CCCc2ccccc21)C(c1ccccc1)c1ccccc1` (centres unmarked), `NC(=O)c1ccc(C(=O)OCC(=O)Nc2ccccc2-c2ccccc2)cc1` is lower in “TSA(without NAD+) / Primary screening (TSA) / delta Tm (K)” value: -0.05 K for the first, -0.18 K for the second.

First: CC(C)(C)c1noc(CCCC(=O)Nc2ccc(F)c(C(N)=O)c2)n1
Second: CCC(C)c1ccc(NC(=O)C(C#N)C(=O)c2cncc(F)c2)cc1 (centres unmarked)
The “TSA(without NAD+) / Primary screening (TSA) / delta Tm (K)” value of the first is lower: -0.15 K for the first, 0.13 K for the second.

First: Cc1ccc(C2CCCN2)cc1 (centres unmarked)
Second: Cn1cc(C2CCNC2)c2ccccc21 (centres unmarked)
The “TSA(without NAD+) / Primary screening (TSA) / delta Tm (K)” value of the first is higher: -0.11 K for the first, -0.23 K for the second.

Going from `Nc1nc(COC(=O)c2cccc(NC(=O)c3cccs3)c2)nc(Nc2ccccc2)n1` to `O=C(OCc1cccc(C(F)(F)F)c1)c1cnc2sccn2c1=O`, the “TSA(without NAD+) / Primary screening (TSA) / delta Tm (K)” value falls from 0.18 K to -0.13 K.

Going from `Cc1cccn2cc(CSc3nc4ccsc4c(=O)n3C)nc12` to `COc1cccc(N2C(=O)NC(=O)C2=O)c1`, the “TSA(without NAD+) / Primary screening (TSA) / delta Tm (K)” value falls from -0.13 K to -0.22 K.

`O=C1c2ccccc2NC2(CCCCC2)N1c1ccc2c(c1)OCCO2` was tested, and the “TSA(without NAD+) / Primary screening (TSA) / delta Tm (K)” value was -0.11 K.
